Results reported in PubChem BioAssay AID590 (National Center for Advancing Translational Sciences (NCATS), 2007).
“And” between values parts separate entries of the source, which are not always exact repeats. Identical values can stand only once. Screen size: about 59,000 compounds; about 6,500 (11%) were called active. This list was built around the results that the source calls inconclusive (neither active nor inactive); the mix of calls is not that of the screen. Rule as the data show it: active = max dye-equivalent concentration above about 10 nM; inconclusive = mostly about 1.1 nM to 9.6 nM; inactive = weaker than that. Some compounds were tested as several samples or in several runs, with calls that do not always agree.

Test: qHTS Assay for Spectroscopic Profiling in A350 Spectral Region
Settings: Compound autofluorescence, 340/450 nm, Alexa 350 dye-equivalents; stronger effect = higher value

Structure (SMILES)	max dye-equivalent concentration	outcome
CCCCSP1(=S)NCCCO1 (configuration not stated)	inconclusive: 1.2e-09 M	
O=S(=O)(O)c1cc(O)ccc1O	inactive	
CC(C)OC(=O)c1c(N)n(Cc2ccco2)c2nc3ccccc3nc12	active: 3.3e-06 M	
C/C=C1\C[C@H](C)[C@@](O)(CO)C(=O)OCC2=CCN3CC[C@@H](OC1=O)[C@@H]23	inconclusive: 2.3e-09 M	
O=C(c1cc2ccccn2n1)N1CCC2(CC1)OCCO2	inactive	
CC(C)(O)[C@H]1[C@H]2OC(=O)[C@@H]1[C@]1(O)C[C@H]3O[C@]34C(=O)O[C@H]2[C@]14C (tested in a mixture with another compound)	inactive	
Cc1nccc2c1[nH]c1ccccc12	active: 8e-07 M and active: 1.2e-06 M	
CCN1CCC2(CCNC2)C1 (configuration not stated)	inconclusive: 1.2e-09 M	
COc1ccc2c(c1)CC1(CN2C)C(=O)NC(=O)N(c2ccc(F)cc2)C1=O (configuration not stated)	inconclusive: 1.1e-09 M	
CCNC[C@H](O)c1cccc(O)c1	inconclusive: 1.3e-09 M	
Cc1c(N=Cc2c(O)n(Cc3ccco3)c(=O)[nH]c2=O)c(=O)n(-c2ccccc2)n1C	inconclusive: 1.6e-09 M	
c1cncc(C2=NCCC2)c1	inactive	
O/N=C1/C(=C\c2ccccc2)N2CCC1CC2	inconclusive: 4e-09 M	
Cc1onc(-c2ccccc2)c1C(=O)N1CCC2(CC1)OCCO2	inconclusive: 2.7e-09 M	
CCCCn1c(O)c(C(C)=NCCN2CCCCC2)c(=O)[nH]c1=O	active: 2.3e-08 M	
CC1=C2[C@@H]3OC(=O)[C@@H](C)[C@@H]3CC[C@]2(C)C=CC1=O	active: 1e-08 M	
Cc1[nH]c2ccccc2c1C1=CCNCC1	inactive	
CN1CCc2nc(SCC(=O)OC(C)(C)C)c(C#N)cc2C1	active: 7.9e-08 M	
CCNC(C)(C)[C@@H](SS)c1ccc(Br)cc1	active: 1e-07 M	
O=C(COc1ccccc1)N1CCN(C/C=C/c2ccccc2)CC1	inactive	
C=CCCN1C[C@@H]2C[C@H](C1)c1cccc(=O)n1C2	inactive	
CCCCCCn1c(N)c(C(=O)NCCN2CCOCC2)c2nc3ccccc3nc21	active: 1e-06 M	

Structure (SMILES)	max dye-equivalent concentration	outcome
CCCN1CCC2(CC1)NC(CO)(CO)CO2	inconclusive: 1.2e-09 M	
CC(C)C1(C)N=C(c2nc3ccccc3cc2C(=O)O)NC1=O (configuration not stated)	inconclusive: 4.5e-09 M	
CCn1cc(C(=O)O)c(=O)c2ccc(C)nc21	active: 2.9e-08 M and inconclusive: 1.4e-09 M	
CC(=O)C1C2c3ccccc3OC1(C)N=c1s/c(=C/c3cn(C)nc3C)c(=O)n12 (configuration not stated)	inconclusive: 2.7e-09 M	
COC(=O)c1cc(COc2cc(C)cc3oc(=O)c4c(c23)CCC4)c(C)o1	inconclusive: 7.1e-09 M	
CN(C)C1(c2nnnn2CCOC(=O)Nc2ccc(Cl)cc2)CCCCC1	inconclusive: 4.2e-09 M	
Cc1ccc2c(c1)CC1(CN2C)C(=O)NC(=O)N(CCC2=CCCCC2)C1=O (configuration not stated)	inconclusive: 1.1e-09 M	
CCOC(=O)C1C(=O)NC23CCCC2C1c1ccccc1O3 (configuration not stated)	inconclusive: 1.2e-09 M	
COc1ccc2c(c1OC)CN1CCc3cc4c(cc3[C@H]1C2)OCO4	inconclusive: 3.3e-09 M	
CC[C@@](O)(C(=O)O)c1cc2n(c(=O)c1CO)Cc1cc3ccccc3nc1-2	active: 9.2e-07 M	
CN1CCN(c2ccc([N+](=O)[O-])c3[nH]o[n+](=O)c23)CC1	inactive	
C[N+]1(C)C2CC(OC(=O)C(CO)c3ccccc3)CC1[C@@H]1O[C@H]21 (some centres not stated)	inactive	
CCC(=NCCO)c1c(O)n(-c2ccccc2)c(=O)[nH]c1=O	inconclusive: 2.4e-09 M	
O=C(c1cc(=O)[nH]c2ccc(Br)cc12)N1CCC2(CC1)OCCO2	inconclusive: 2.5e-09 M	
COc1ccccc1-n1c(O)c(C=NCc2ccc3c(c2)OCO3)c(=O)[nH]c1=O	inconclusive: 1.2e-09 M	
O=C(CN1C2CCC1CC(O)(c1cccnc1)C2)Nc1ccc2c(c1)OCO2 (configuration not stated)	inactive	
COc1cc2c(cc1OC)[C@H](C)NCC2	active: 3.6e-08 M	
COc1ccc(N=C(C)c2c(O)n(C3CCCCC3)c(=O)[nH]c2=O)c(OC)c1	inconclusive: 5.8e-09 M	
COc1ccc(-c2cc(C(F)(F)F)n3nc(C(=O)N4CCC5(CC4)OCCO5)cc3n2)cc1OC	inconclusive: 6.1e-09 M	
CCCc1nc2ccccc2c(=O)n1-c1ccccc1OC	inconclusive: 1.1e-09 M	
CC1=NN(c2ccccc2)C(=O)[C@@H]1N=Nc1ccc([As](=O)(O)O)c(O)c1	inactive	
O=c1c2ccccc2nc(N2CCCC2)n1-c1ccc(Cl)cc1	active: 1.2e-07 M	

Structure (SMILES)	max dye-equivalent concentration	outcome
COc1ccc(Cc2nccc3cc(OC)c(OC)cc23)cc1OC	inconclusive: 2.3e-09 M and inconclusive: 4.1e-09 M	inactive
CC(=NCCN1CCCCC1)c1c(O)n(Cc2ccccc2)c(=O)[nH]c1=O	inconclusive: 1.5e-09 M	
CCCCP(=O)(O)CCC(=O)O	inconclusive: 1.9e-09 M	
Cc1cc(N2C(=O)C3CCCN3C2c2cccc(Cl)c2)no1 (configuration not stated)	inactive	
Oc1ccc2c3c1O[C@@H]1c4[nH]c5c(c4C[C@@]4(O)[C@@H](C2)N(CC2CC2)CC[C@]314)C[C@]1(O)[C@@H]2Cc3ccc(O)c4c3[C@@]1(CCN2CC1CC1)[C@H]5O4	active: 5.2e-08 M	
O=S(=O)(c1ccc(Cl)cc1)N1CN2CCN(C2)C1	inconclusive: 1.7e-09 M	
C[C@H](c1ccccc1)N1CCN([C@@H](C)c2ccccc2)CC1	inactive	
Cc1cc(OCC(=O)NC2CCS(=O)(=O)C2)c2c3c(c(=O)oc2c1)CCC3 (configuration not stated)	active: 1.5e-08 M	
COc1ccc(Cn2c(N)c(C(=O)NCc3ccco3)c3nc4ccccc4nc32)cc1OC	active: 1.2e-07 M	
CCC(=NCCO)c1c(O)n(C2CCCCC2)c(=O)[nH]c1=O	inconclusive: 2.8e-09 M	
C[C@@H]1CCC/C=C\[C@H]2C[C@H](O)C[C@@H]2[C@H](O)/C=C\C(=O)O1	inactive	
COc1cc2[nH]c(=O)n(-c3cccc(Cl)c3)c(=O)c2cc1OC	inconclusive: 6.2e-09 M	
NC(=O)OCCSc1nnc(-c2cccc(C(N)=S)c2)o1	inconclusive: 4.9e-09 M	
COC(=O)c1cc2c(s1)=NC=NP=2(N1CCOCC1)N1CCOCC1	inconclusive: 7e-09 M	
O=C(c1cc2nc(-c3ccccc3)cc(-c3ccccc3)n2n1)N1CCC2(CC1)OCCO2	active: 4.8e-08 M	
C=CCOC(=O)C1=C(C)OC(N)=C(C#N)C12C(=O)N(CN1CCOCC1)c1ccccc12 (configuration not stated)	inconclusive: 1.1e-09 M	
CS(=O)(=O)O[C@H]1CN2CCC1CC2	inactive	
CCOc1ccc(Cc2c(O)[nH]c(=O)[nH]c2=O)cc1	inconclusive: 1.7e-09 M	
COc1ccc(OC)c(-n2c(O)c(C=NCc3ccc4c(c3)OCO4)c(=O)[nH]c2=O)c1	inconclusive: 2.3e-09 M	
O=C(COc1ccc2ccccc2c1)N1CCN(C2CCN(Cc3ccccc3)CC2)CC1	active: 1.4e-08 M	
COc1ccc2c(c1)[nH]c1c(C)nccc12	active: 7.4e-07 M	
COCCCNC(=O)c1c(NC(=O)c2ccco2)n(Cc2ccccc2)c2nc3ccccc3nc12	active: 2.6e-06 M	

Structure (SMILES)	max dye-equivalent concentration	outcome
CCOc1cccc(N2C(=O)CC(=O)NC2=O)c1	inconclusive: 1.3e-09 M	
O=c1[nH]c(=O)n(CCC2=CCCCC2)c(O)c1C=NCc1cccnc1	inconclusive: 5.2e-09 M	
O=c1[nH]c(=O)n(Cc2ccc(F)cc2)c(O)c1C=NCCCN1CCOCC1	inconclusive: 8.8e-09 M	
O=C1NC(=O)C2(Cc3ccccc3N3CCCC32)C(=O)N1c1cccc(Cl)c1 (configuration not stated)	inconclusive: 6.8e-09 M	
CCCCn1c(O)c(C(C)=NCCCN(CC)CC)c(=O)[nH]c1=O	inconclusive: 1.5e-09 M	
COCCOC(=O)c1c(N)n(Cc2ccc(OC)cc2)c2nc3ccccc3nc12	active: 2.9e-06 M	
CN(CCC(=O)O)C1=Nc2ccc(Cl)cc2C(c2ccccc2)=[N+]([O-])C1	inactive	
Nc1ncc(P(=S)(N2CCOCC2)N2CCOCC2)s1	inactive	
COCCOC(=O)c1c(C)oc2ccc(OC(=O)N(C)C)cc12	inconclusive: 1.3e-09 M	
CC(=O)OCC1=C(C(=O)O)N2C(=O)[C@@H](N)[C@@H]2SC1	inconclusive: 2.9e-09 M	
O=C1NC(=O)N(Cc2ccccc2Cl)C(=O)/C1=C/N1CCOCC1	inconclusive: 1.6e-09 M	
COc1ccc(CNC(=O)/C=C\c2ccc3[nH]cc(CCN(C)C)c3c2)cc1	inactive	
C=CCn1c(O)c(C=Nc2ccc(OC)cc2C)c(=O)[nH]c1=O	active: 5.6e-06 M	
O=C(C1CC(=O)N(C2CCCCC2)C1)N1CCC2(CC1)OCCO2 (configuration not stated)	inconclusive: 3.3e-09 M	
CC1=NN(c2ccc(S(=O)(=O)O)cc2C)C(=[OH+])[C@H]1N=Nc1cc(S(=O)(=O)O)ccc1C(=O)O.O.[Cr]	inactive	
COc1cc2c(cc1OC)[C@@]13CCN4CC5=CCO[C@H](CC(=O)O)[C@@H]([C@H]1N2)[C@H]5C[C@H]43	inactive	
O=C(O)C(Oc1nc(=S)[nH]c(=S)[nH]1)(c1ccc(Cl)cc1)c1ccc(Cl)cc1	inactive	
O=C(O)[C@H]1CCN1	inactive	
COc1cc2c(c(OC)c1OC)-c1ccc(O)c(=O)cc1[C@@H](NC(C)=O)CC2	inactive	
Cc1cc(OCC(=O)Nc2cc(C)nn2-c2ccccn2)c2c3c(c(=O)oc2c1)CCC3	inconclusive: 5.8e-09 M	
